No constants are given. Whether binding was seen depends on the method and setting. Some results given as binding are weak or reduced against the parent protein; the word gives no strength.
Biological target: Ecotin of Sequence ID No. 1 (E. coli) (UniProt A8A271)
Test: ecotin affinity chromatography, SDS-PAGE

Sequences of proteins named here, by UniProt entry; tags and fusion partners are left off. A change or cut given only in a name is not applied to a line headed by its entry.
UniProt A8A271: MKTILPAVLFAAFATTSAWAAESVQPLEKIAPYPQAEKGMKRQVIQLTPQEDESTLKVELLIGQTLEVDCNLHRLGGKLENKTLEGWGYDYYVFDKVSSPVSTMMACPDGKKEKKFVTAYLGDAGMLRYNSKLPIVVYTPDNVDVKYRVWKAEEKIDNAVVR
UniProt P07477: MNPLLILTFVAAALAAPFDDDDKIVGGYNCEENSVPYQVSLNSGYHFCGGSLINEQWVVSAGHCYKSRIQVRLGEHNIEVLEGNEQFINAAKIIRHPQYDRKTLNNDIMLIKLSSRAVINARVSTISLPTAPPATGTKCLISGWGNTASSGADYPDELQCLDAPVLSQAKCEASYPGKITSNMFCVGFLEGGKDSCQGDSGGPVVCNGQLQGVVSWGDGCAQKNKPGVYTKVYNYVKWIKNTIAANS

“mutant human cationic trypsinogen (PRSS1) with the 200th serine changed to alanine (SEQ ID NO: 2) (from UniProt P07477 24-247) (enzyme)” was tested, and the binding was “binds”.
